Results are given in words; binding and its absence hold for the method and conditions named. For some assays here: In cells and extracts the contact can be indirect.
T1: PIGT, subunit of the human GPI transamidase (GPI-T) (human) (UniProt Q969N2)
T1 sequence (chain, disulfide bond from C182 to PIGK C92): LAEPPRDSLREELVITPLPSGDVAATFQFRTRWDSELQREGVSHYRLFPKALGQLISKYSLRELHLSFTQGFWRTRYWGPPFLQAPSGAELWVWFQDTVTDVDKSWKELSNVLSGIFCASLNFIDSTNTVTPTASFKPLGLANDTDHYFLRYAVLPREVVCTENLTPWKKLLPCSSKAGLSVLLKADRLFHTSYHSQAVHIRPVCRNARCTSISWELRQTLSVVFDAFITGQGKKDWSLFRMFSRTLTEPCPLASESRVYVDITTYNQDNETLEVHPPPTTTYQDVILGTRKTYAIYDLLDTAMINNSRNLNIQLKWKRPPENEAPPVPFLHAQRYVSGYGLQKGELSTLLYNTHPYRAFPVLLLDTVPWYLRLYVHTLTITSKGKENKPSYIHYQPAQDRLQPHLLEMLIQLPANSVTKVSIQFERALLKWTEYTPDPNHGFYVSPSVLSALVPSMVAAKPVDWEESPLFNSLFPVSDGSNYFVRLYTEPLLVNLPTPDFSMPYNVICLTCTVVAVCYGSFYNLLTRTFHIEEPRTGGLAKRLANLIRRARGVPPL

The chains behind the UniProt entries cited, without tags or fusion partners. Where a name states a change or a piece, a line headed by the entry shows the natural chain unless it says otherwise.
UniProt O43292: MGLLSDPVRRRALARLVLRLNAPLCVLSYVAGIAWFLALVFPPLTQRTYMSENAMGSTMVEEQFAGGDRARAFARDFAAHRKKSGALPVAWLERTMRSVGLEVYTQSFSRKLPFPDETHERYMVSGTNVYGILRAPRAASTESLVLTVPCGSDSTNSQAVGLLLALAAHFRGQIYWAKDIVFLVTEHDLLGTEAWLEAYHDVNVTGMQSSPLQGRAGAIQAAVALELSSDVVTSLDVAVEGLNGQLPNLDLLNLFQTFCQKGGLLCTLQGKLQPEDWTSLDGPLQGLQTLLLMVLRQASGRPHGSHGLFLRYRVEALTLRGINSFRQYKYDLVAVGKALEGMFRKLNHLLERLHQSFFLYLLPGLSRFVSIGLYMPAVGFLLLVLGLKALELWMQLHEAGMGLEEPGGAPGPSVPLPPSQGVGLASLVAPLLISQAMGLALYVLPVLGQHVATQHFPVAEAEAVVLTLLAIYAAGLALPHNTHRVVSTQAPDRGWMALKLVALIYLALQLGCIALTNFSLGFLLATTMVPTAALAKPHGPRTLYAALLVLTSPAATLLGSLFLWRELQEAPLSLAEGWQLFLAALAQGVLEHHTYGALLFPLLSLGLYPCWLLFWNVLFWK
UniProt Q96S52: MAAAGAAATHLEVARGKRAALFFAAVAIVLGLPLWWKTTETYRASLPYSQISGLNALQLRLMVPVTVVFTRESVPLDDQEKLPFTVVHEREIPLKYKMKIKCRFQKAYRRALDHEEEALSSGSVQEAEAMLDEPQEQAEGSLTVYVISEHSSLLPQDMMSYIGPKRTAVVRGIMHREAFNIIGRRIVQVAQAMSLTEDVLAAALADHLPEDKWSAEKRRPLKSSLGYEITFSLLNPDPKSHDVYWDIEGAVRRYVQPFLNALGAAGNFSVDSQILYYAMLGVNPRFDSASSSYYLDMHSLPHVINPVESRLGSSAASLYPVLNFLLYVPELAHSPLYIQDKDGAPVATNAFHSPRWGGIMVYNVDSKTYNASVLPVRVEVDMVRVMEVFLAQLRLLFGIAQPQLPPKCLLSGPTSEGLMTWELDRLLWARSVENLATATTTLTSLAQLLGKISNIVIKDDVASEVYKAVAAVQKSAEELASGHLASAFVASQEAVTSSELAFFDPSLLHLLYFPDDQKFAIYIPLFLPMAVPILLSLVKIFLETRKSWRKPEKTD
UniProt Q9H490: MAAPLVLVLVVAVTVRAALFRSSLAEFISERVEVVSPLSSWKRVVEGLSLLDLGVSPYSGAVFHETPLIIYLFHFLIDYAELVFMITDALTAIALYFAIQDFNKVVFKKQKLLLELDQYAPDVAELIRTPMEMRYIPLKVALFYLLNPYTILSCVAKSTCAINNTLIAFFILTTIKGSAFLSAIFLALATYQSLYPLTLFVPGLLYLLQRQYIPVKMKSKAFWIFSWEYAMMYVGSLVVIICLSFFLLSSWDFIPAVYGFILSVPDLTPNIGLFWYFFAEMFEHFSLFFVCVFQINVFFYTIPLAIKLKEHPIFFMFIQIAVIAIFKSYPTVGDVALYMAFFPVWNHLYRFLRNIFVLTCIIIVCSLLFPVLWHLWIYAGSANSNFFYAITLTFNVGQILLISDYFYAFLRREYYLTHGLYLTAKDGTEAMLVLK


Experiments:
[1] = target: human GPI transamidase complex (GPI-T), equimolar heteropentamer of GPAA1, PIGK, PIGS, PIGT and PIGU (human) (UniProt O43292+Q92643+Q96S52+Q969N2+Q9H490); test: cryo-EM structure; single-particle cryo-EM of the purified GPI-T complex in 0.1% digitonin, 150 mM NaCl, 20 mM Tris HCl pH 8.0; 2.53 Å; five subunits with 1:1 stoichiometry; both purified
[2] = target: T1, PIGT, subunit of the human GPI transamidase (GPI-T) (human); test: condition: only with the reducing agent β-mercaptoethanol on SDS-PAGE; cross-linking; as a2, but SDS-PAGE in the presence of the reducing agent β-mercaptoethanol

Molecule | binding [1] | binding [2]
human GPI transamidase complex (GPI-T), equimolar heteropentamer of GPAA1, PIGK, PIGS, PIGT and PIGU (from UniProt O43292-1 2-621; Q92643-1 28-395; Q96S52-1 2-555; Q969N2-1 22-578; Q9H490-1 2-435) | no binding | 
PIGK, subunit of the human GPI transamidase (GPI-T) (enzyme, disulfide bond from C92 to PIGT C182, PIGK, human, Genbank ID NP_005473.1; The HA tag follows the TGP tag; also called Gpi8p (yeast name); source: Expi293 cells co-transfected with five plasmids carrying all subunits; purified as the GPI-T complex (Strep-Tactin, Ni-NTA, gel filtration) in digitonin) SHIEDQAEQFFRSGHTNNWAVLVCTSRFWFNYRHVANTLSVYRSVKRLGIPDSHIVLMLADDMACNPRNPKPATVFSHKNMELNVYGDDVEVDYRSYEVTVENFLRVLTGRIPPSTPRSKRLLSDDRSNILIYMTGHGGNGFLKFQDSEEITNIELADAFEQMWQKRRYNELLFIIDTCQGASMYERFYSPNIMALASSQVGEDSLSHQPDPAIGVHLMDRYTFYVLEFLEEINPASQTNMNDLFQVCPKSLCVSTPGHRTDLFQRDPKNVLITDFFGSVRKVEITTETIKLQQDSEIMESSYKEDQMDEKLMEPLKYAEQLPVAQIIHQKPKLKDWHPPGGFILGLWALIIMVFFKTYGIKHMKFIF |  | no binding
